Taken from: PubChem BioAssay AID1259327 (Drosophila RNAi Screening Center, 2017)
The deposit covers about 3,100 reagents; below is an unselected part. In the full data, 378 (12%) were called active. 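Hits include both directions; z-score sign shows ATP rise or fall; raw luminescence values are not plate-normalised.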 Entries without a mark were called inactive. Names joined by + are all predicted targets of the reagent. The record does not give: the amount of reagent.

Screen: 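Knock-downs altering cellular ATP with no metal added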
System: Drosophila S2R+ cells
Reagents: long dsRNA against Drosophila genes
Time to read-out: 5 days (water added on day 4, read one day later)
Conditions: water added as vehicle, no metal, one day before read-out
Detection: 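Total ATP measured by luciferase light, scaled to plate mean, duplicates averaged, then z-scored across plates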
Direction: ATP z-score: higher = more total ATP than typical wells; ATP luminescence: higher = more total ATP
Rule for the call: 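a hit is any knock-down whose absolute ATP z-score is greater than 1.5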
Calls: active = hit: ATP up or down; inactive = no clear ATP change

no.	target gene	PubChem SID	ATP z-score, duplicate mean	ATP luminescence, replicate 1 (RLU)	ATP luminescence, replicate 2 (RLU)
1	IA-2	SID104180444	0.469	5.28e5	4.94e5
2	IA-2	SID104203281	0.105	9.17e5	8.09e5
3	IA-2	SID104214406	0.596	5.30e5	7.32e5
4	IA-2	SID104214407	1.07	6.25e5	7.16e5
5	bdg	SID104186928	0.0404	7.10e5	7.61e5
6	klar	SID104201871	-0.31	6.68e5	9.56e5
7	por	SID104208421	1.93 (active)	7.54e5	7.33e5
8	por	SID104217402	1.37	5.42e5	6.10e5
9	Cad96Ca	SID104194012	0.0201	3.19e5	7.15e5
10	Cad96Ca	SID104196485	-0.256	7.10e5	7.19e5
11	Cad96Ca	SID104214314	-0.6	5.07e5	5.51e5
12	Sema1b	SID104187342	0.968	8.69e5	7.99e5
13	Sema1b	SID104206096	1.26	1.01e6	1.10e6
14	CG16727	SID104194931	-0.525	2.61e5	7.43e5
15	CG16727	SID104205364	1.8 (active)	1.13e6	8.51e5
16	pippin	SID104184281	-0.0526	7.34e5	7.16e5
17	pippin	SID104217275	-1.94 (active)	3.47e5	3.19e5
18	Gr2a	SID104198395	1.3	8.33e5	7.78e5
19	Gr2a	SID104217302	0.482	4.77e5	5.20e5
20	Lerp	SID104194543	1.75 (active)	6.26e5	6.67e5
21	Lerp	SID104195822	1.7 (active)	6.17e5	7.95e5
22	Lerp	SID104195823	-0.512	5.53e5	1.05e6
23	plh	SID104192086	-1.11	7.74e5	7.29e5
24	side-VIII	SID104202544	0.9	7.16e5	5.95e5
25	side-VIII	SID104206897	-0.685	7.57e5	7.25e5
26	CG9706	SID104190887	0.211	7.48e5	7.59e5
27	CG9706	SID104217397	-0.537	4.59e5	4.22e5
28	Cnx14D + Cnx99A	SID104196402	1.62 (active)	6.19e5	6.95e5
29	CG6006	SID104192929	0.662	3.19e5	8.60e5
30	CG6006	SID104195738	0.423	7.78e5	7.21e5
31	ORMDL	SID104206322	1.42	8.69e5	8.87e5
32	ppk9	SID104183926	0.192	7.74e5	7.20e5
33	ppk9	SID104183927	-0.299	8.79e5	8.36e5
34	nAChRalpha7	SID104199870	-0.769	5.98e5	7.25e5
35	nAChRalpha7	SID104199873	-0.653	6.72e5	6.70e5
36	Nup153	SID104199696	-2.59 (active)	4.55e5	4.21e5
37	VAChT	SID104193103	-1.04	5.90e5	6.73e5
38	VAChT	SID104202976	-0.986	7.30e5	7.25e5
39	Rift	SID104194122	-0.17	5.57e5	8.02e5
40	Adgf-A2	SID104189299	1.02	6.29e5	7.13e5
41	Adgf-A2	SID104217017	1.66 (active)	5.88e5	5.38e5
42	Gr58a	SID104183702	0.0221	7.14e5	7.77e5
43	Lar	SID104181499	-0.348	6.99e5	7.11e5
44	Lar	SID104183153	0.00172	5.68e5	3.84e5
45	Lar	SID104214570	1.29	7.04e5	6.74e5
46	CG5885	SID104182702	1.31	5.60e5	5.81e5
47	CG5885	SID104207305	-0.287	8.08e5	7.70e5
48	Ulp1	SID104199131	-1.3	5.87e5	5.56e5
49	Ulp1	SID104217279	-1.04	3.70e5	4.20e5
50	ZnT35C	SID104181751	-1.39	5.40e5	6.17e5
51	ZnT35C	SID104216994	-1.32	4.34e5	3.01e5
52	MFS9	SID104195352	-0.152	6.95e5	6.85e5
53	Tom7	SID104184927	-0.768	6.57e5	6.61e5
54	Tom7	SID104186905	-0.39	6.36e5	5.32e5
55	VhaM9.7-c	SID104187996	-2.07 (active)	4.95e5	5.25e5
56	VhaM9.7-c	SID104208627	-0.617	5.43e5	5.11e5
57	sesB	SID104200163	-1.64 (active)	5.74e5	4.41e5
58	sesB	SID104208418	-2.02 (active)	4.39e5	3.78e5
59	Or88a	SID104196562	0.0851	2.98e5	7.83e5
60	Or88a	SID104216998	1.45	5.58e5	5.41e5
61	para	SID104198933	1.37	6.77e5	8.10e5
62	para	SID104200152	-0.28	5.35e5	6.58e5
63	CG31904 + CG13796	SID104201708	-0.352	5.43e5	5.78e5
64	CG9254	SID104181761	0.835	7.86e5	8.43e5
65	Gr47a	SID104186013	-1.26	5.12e5	4.98e5
66	Gr47a	SID104217083	0.0866	4.84e5	4.34e5
67	nAChRalpha1	SID104193464	-0.513	8.22e5	8.35e5
68	nAChRalpha1	SID104196800	1.83 (active)	3.99e5	9.16e5
